Laboratory results: PMC5299006
No constants are given. Whether binding was seen depends on the method and setting. Binding seen in cells or lysates may run through a third protein. Binding calls can cover weak binding; strength is not graded here.

Sequences of proteins named here, by UniProt entry; tags and fusion partners are left off. A change or cut given only in a name is not applied to a line headed by its entry.
UniProt Q5GMP6: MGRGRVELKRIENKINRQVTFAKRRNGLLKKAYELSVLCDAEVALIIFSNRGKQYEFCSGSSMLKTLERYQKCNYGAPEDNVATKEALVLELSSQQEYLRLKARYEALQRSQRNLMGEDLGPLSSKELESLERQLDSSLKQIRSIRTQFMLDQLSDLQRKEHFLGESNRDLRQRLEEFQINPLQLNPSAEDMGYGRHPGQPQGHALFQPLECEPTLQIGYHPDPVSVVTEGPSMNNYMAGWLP
UniProt Q3Y4G8: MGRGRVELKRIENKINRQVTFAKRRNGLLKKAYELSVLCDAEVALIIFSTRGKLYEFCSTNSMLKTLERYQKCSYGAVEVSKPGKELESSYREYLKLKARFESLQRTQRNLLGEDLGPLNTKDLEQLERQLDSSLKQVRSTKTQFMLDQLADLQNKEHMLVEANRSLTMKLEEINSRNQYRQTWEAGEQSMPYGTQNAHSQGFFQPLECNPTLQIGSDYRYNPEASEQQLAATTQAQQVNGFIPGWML

Molecular target: GmAGL1 fused to a split-YFP fragment for BiFC (GmAGL1-N-YFP) (soybean (Glycine max))
Assay: split reporter; BiFC with split YFP (N-YFP 1-155, C-YFP 156-239); plasmids co-bombarded 1:1 into onion epidermal cells; confocal imaging two days after bombardment

Substance	binding
GmSEP3 fused to C-YFP for BiFC (GmSEP3-C-YFP) (from UniProt Q5GMP6)	binds
GmSEP1 fused to C-YFP for BiFC (GmSEP1-C-YFP) (from UniProt Q3Y4G8)	binds
